Binding data for 3 molecules are collected here from paper PMC8774231, “Point Mutations at a Key Site Alter the Cytochrome P450 OleP Structural Dynamics” (Biomolecules, 2021).

Common to all, as to assay: SEC; gel filtration, 10/400 column packed with Tosoh HW-55S resin, 20 mM Tris-HCl, 200 mM NaCl, pH 8.0, 293 K; both purified
On the technique in general: Size exclusion chromatography separates by hydrodynamic size, large species first.

Experiment [1] addresses OleP mutant E89Y (Streptomyces antibioticus) (UniProt Q59819).
The target in experiment [2] is OleP mutant S240Y (Streptomyces antibioticus) (UniProt Q59819).
In experiment [3] the target is OleP mutant G92W (Streptomyces antibioticus) (UniProt Q59819).

Results are given in words; binding and its absence hold for the method and conditions named.

B1: OleP mutant E89Y (enzyme, UniProt Q59819 1-407)
chain: MTDTHTGPTPADAVPAYPFSLPHALDLDPHYAELRRDEPVSRVRLPYGEGTAWLVTRMSDARIVLGDSRFSTAAATDPATPRMFPTPPYPDGVLAQDPPDHTRLRRLVGKAFTARRVEEMRPRVRSLVDSLLDDMVAHGSPADLVEFLAVPFPVAVICELLGVPLEDRDLFRTFSDAMLSSTRLTAAEIQRVQQDFMVYMDGLVAQRRDAPTEDLLGALALATDNDDHLTKGEIVNMGVSLLIAGHETSVNQITNLVHLLLTERKRYESLVADPALVPAAVEEMLRYTPLVSAGSFVRVATEDVELSTVTVRAGEPCVVHFASANRDEEVFDHADELDFHRERNPHIAFGHGAHHCIGAQLGRLELQEALSALVRRFPTLDLAEPVAGLKWKQGMLIRGLERQIVSW
Consider B1, for which the binding entry in experiment [1] is recorded as “no binding”.

B2: OleP mutant S240Y (enzyme, UniProt Q59819 1-407)
chain: MTDTHTGPTPADAVPAYPFSLPHALDLDPHYAELRRDEPVSRVRLPYGEGTAWLVTRMSDARIVLGDSRFSTAAATDPATPRMFPTPPEPDGVLAQDPPDHTRLRRLVGKAFTARRVEEMRPRVRSLVDSLLDDMVAHGSPADLVEFLAVPFPVAVICELLGVPLEDRDLFRTFSDAMLSSTRLTAAEIQRVQQDFMVYMDGLVAQRRDAPTEDLLGALALATDNDDHLTKGEIVNMGVYLLIAGHETSVNQITNLVHLLLTERKRYESLVADPALVPAAVEEMLRYTPLVSAGSFVRVATEDVELSTVTVRAGEPCVVHFASANRDEEVFDHADELDFHRERNPHIAFGHGAHHCIGAQLGRLELQEALSALVRRFPTLDLAEPVAGLKWKQGMLIRGLERQIVSW
Consider B2, for which the binding result in experiment [2] is “no binding”.

B3: OleP mutant G92W (enzyme, UniProt Q59819 1-407)
chain: MTDTHTGPTPADAVPAYPFSLPHALDLDPHYAELRRDEPVSRVRLPYGEGTAWLVTRMSDARIVLGDSRFSTAAATDPATPRMFPTPPEPDWVLAQDPPDHTRLRRLVGKAFTARRVEEMRPRVRSLVDSLLDDMVAHGSPADLVEFLAVPFPVAVICELLGVPLEDRDLFRTFSDAMLSSTRLTAAEIQRVQQDFMVYMDGLVAQRRDAPTEDLLGALALATDNDDHLTKGEIVNMGVSLLIAGHETSVNQITNLVHLLLTERKRYESLVADPALVPAAVEEMLRYTPLVSAGSFVRVATEDVELSTVTVRAGEPCVVHFASANRDEEVFDHADELDFHRERNPHIAFGHGAHHCIGAQLGRLELQEALSALVRRFPTLDLAEPVAGLKWKQGMLIRGLERQIVSW
On to B3, for which, in experiment [3], the binding result is “no binding”.
